Values of other authors in patent US6136801A, “Therapeutic agent with quantitative consumption marker” (U. D. Testing, Inc., priority 1998, dated 2000).
At least one read-out could not be matched to a standard name with certainty.

Details: stable methadone maintenance patients; cited from earlier work

## CCC(=O)C(CC(C)N(C)C)(c1ccccc1)c1ccccc1 (stereo not shown) [methadone]
  plasma methadone concentrations necessary: 150 to 600 ng/mL
